Experimental data: PubChem BioAssay AID652243 (Drosophila RNAi Screening Center, 2013)

- Aim: 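Fly regulators of androgen-dependent reporter output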 (primary screen)
- System: Drosophila S2R+ cells
- Knock-down reagent: long dsRNA against Drosophila genes
- Duration: 72 h (48 h, then 24 h hormone)
- Conditions: synthetic androgen R1881 at 10 nM for 24 h
- Measurement: 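Firefly light from an androgen-responsive reporter and Renilla control light per well, raw and unnormalised, for each of two replicates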
- Scale: firefly reporter light: higher = more light from androgen-responsive reporter; Renilla control light: higher = more constitutive control signal (cell number, transfection)
- Call rule: 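Across duplicate plates, a knock-down whose log firefly/Renilla ratio shifted a set fold down or up from the GFP/LacZ control mean was a hit; the downward cut appears as both 1.5 and 3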
- Calls: active = hit: reporter lowered or raised; inactive = no hit
In all, the deposit lists about 24,000 reagents; below is a random part of those that have a named target and a result. In the full data, 246 (1%) were called active. 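Plates not normalised; calls are printed but the firefly/Renilla ratio behind them is not deposited; fold cut for lowering reported inconsistently.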 Raw values vary from plate to plate and are shown uncorrected. Entries without a mark were called inactive. The numbers tell different reagents against one gene apart. Not given: the amount of reagent.

no.	Gene	dsRNA no.	firefly reporter light, replicate 1	firefly reporter light, replicate 2	Renilla control light, replicate 1	Renilla control light, replicate 2
1	Toll-9 (GeneID 40245)	1	3.06e5	1.97e5	1.94e6	2.03e6
2	CG32454 (GeneID 318037)	1	44161	56269	2.56e5	3.22e5
3	alc (GeneID 35931)	1	3.53e5 (active)	3.14e5	3.13e6	2.90e6
4	alc (GeneID 35931)	2	6.30e5	5.51e5	1.87e6	1.66e6
5	alc (GeneID 35931)	3	5.26e5	6.45e5	1.34e6	1.23e6
6	CG17470 (GeneID 35321)	1	6.71e5	8.53e5	9.11e5	1.22e6
7	CG5762 (GeneID 42907)	1	74360	1.04e5	4.13e5	4.87e5
8	CG3097 (GeneID 31503)	1	2.18e5	2.71e5	2.05e6	1.52e6
9	Hayan (GeneID 32831)	1	99363	1.45e5	6.95e5	8.06e5
10	Hayan (GeneID 32831)	2	7.03e5	7.95e5	2.32e6	2.14e6
11	Hayan (GeneID 32831)	3	2.47e5	3.87e5	5.64e5	6.80e5
12	CG14483 (GeneID 36995)	1	1.53e5	1.22e5	2.41e6	2.41e6
13	Atx-1 (GeneID 31624)	1	3.19e5	3.35e5	3.40e6	3.55e6
14	MrgBP (GeneID 35880)	1	2.63e5	1.99e5	2.11e6	1.42e6
15	MrgBP (GeneID 35880)	2	3.64e5	3.39e5	1.06e6	1.10e6
16	CG32645 (GeneID 32264)	1	5.93e5	6.10e5	3.34e6	3.50e6
17	CG32645 (GeneID 32264)	2	6.80e5	5.45e5	3.82e6	4.11e6
18	ocm (GeneID 37874)	1	5.49e5	7.32e5	1.23e6	1.14e6
19	ocm (GeneID 37874)	2	2.40e5	3.00e5	6.17e5	7.04e5
20	PGAP3 (GeneID 35570)	1	8.24e5	6.44e5	1.67e6	1.88e6
21	ovo (GeneID 31429)	1	70940	55426	4.62e5	5.72e5
22	ovo (GeneID 31429)	2	2.87e5	3.03e5	7.83e5	6.37e5
23	Grl40a (GeneID 4379897)	1	8.64e5	7.86e5	1.96e6	2.06e6
24	snsl (GeneID 33696)	1	2.33e5	83805	2.36e6	7.85e5
25	snsl (GeneID 33696)	2	7.55e5	9.30e5	6.72e5	1.06e6
26	CG33632 (GeneID 3885590)	1	9.37e5	5.98e5	1.37e6	8.40e5
27	Ubqn (GeneID 32977)	1	97977	70260	5.68e5	4.99e5
28	Ubqn (GeneID 32977)	2	6.65e5	8.15e5	9.23e5	1.00e6
29	CG6149 (GeneID 39277)	1	1.65e5	1.67e5	1.70e6	1.76e6
30	tos (GeneID 35119)	1	1.40e6	5.04e5	1.76e6	1.11e6
31	CG31104 (GeneID 43054)	1	2.33e5	3.46e5	2.09e6	2.20e6
32	CG31104 (GeneID 43054)	2	4.82e5	4.69e5	5.39e5	7.98e5
33	BaraC (GeneID 246528)	1	1.72e5	2.16e5	3.45e5	3.28e5
34	SLC22A (GeneID 40437)	1	2.55e5	3.09e5	2.68e6	3.37e6
35	SLC22A (GeneID 40437)	2	3.20e5	2.15e5	2.94e6	2.76e6
36	sip2 (GeneID 33979)	1	77259	72041	1.16e6	1.00e6
37	CG6805 (GeneID 36911)	1	2.79e5	3.89e5	3.09e5	2.80e5
38	CG6805 (GeneID 36911)	2	3.71e5	3.85e5	1.18e6	1.18e6
39	Mob3 (GeneID 34372)	1	2.14e5	2.68e5	1.49e6	1.96e6
40	eRF1 (GeneID 40240)	1	35637	31541	3.84e5	2.44e5
41	eRF1 (GeneID 40240)	2	8.00e5	4.67e5	3.24e6	1.81e6
42	CG34342 (GeneID 5740152)	1	1.92e5	1.38e5	2.59e6	2.06e6
43	CG34342 (GeneID 5740152)	2	4.13e5	7.77e5	4.14e5	6.53e5
44	CG34342 (GeneID 5740152)	3	8.96e5	9.69e5	9.66e5	9.94e5
45	Spx (GeneID 31558)	1	1.41e5	1.48e5	1.69e6	2.16e6
46	Spx (GeneID 31558)	2	1.79e5	2.79e5	7.00e5	5.80e5
47	ana2 (GeneID 35878)	1	5.28e5	8.26e5	1.36e6	1.46e6
48	ana2 (GeneID 35878)	2	4.14e5	3.51e5	3.98e5	5.50e5
49	CG10063 (GeneID 38764)	1	1.20e5	1.29e5	1.80e6	2.10e6
50	CG10063 (GeneID 38764)	2	4.40e5	5.27e5	1.14e6	9.92e5
51	CG8188 (GeneID 32751)	1	4.14e5	4.87e5	1.65e6	1.92e6
52	CG8188 (GeneID 32751)	2	1.82e5	1.82e5	4.25e5	6.54e5
53	CG6567 (GeneID 41304)	1	97782	1.07e5	1.40e6	1.31e6
54	Raf (GeneID 31221)	1	88869	1.96e5	2.40e6	2.91e6
55	Raf (GeneID 31221)	2	8.87e5	9.62e5	1.78e6	1.75e6
56	Raf (GeneID 31221)	3	8.36e5	7.79e5	1.87e6	1.79e6
57	OtopLa (GeneID 8674066)	1	3.80e5	3.95e5	3.50e6	3.81e6
58	OtopLa (GeneID 8674066)	2	8.64e5	7.74e5	1.34e6	1.57e6
59	OtopLa (GeneID 8674066)	3	8.11e5	4.67e5	1.58e6	1.36e6
